First the molecules themselves.
T1: HA-tagged doublecortin (HA-DCX), bait of the pull-down (UniProt O43602)
T1 sequence: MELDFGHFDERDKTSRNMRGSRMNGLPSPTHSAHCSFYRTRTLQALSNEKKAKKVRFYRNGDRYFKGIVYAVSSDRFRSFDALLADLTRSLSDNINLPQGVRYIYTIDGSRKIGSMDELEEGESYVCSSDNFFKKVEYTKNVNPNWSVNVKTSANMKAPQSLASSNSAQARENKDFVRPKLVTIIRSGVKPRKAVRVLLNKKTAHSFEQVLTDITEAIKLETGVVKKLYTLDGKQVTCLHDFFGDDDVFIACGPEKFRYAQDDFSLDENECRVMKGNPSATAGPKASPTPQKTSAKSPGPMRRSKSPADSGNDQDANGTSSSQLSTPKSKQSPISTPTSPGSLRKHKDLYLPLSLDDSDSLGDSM

B1: Catenin alpha-2 (protein, UniProt Q61301 1-953)
chain: MTSATSPIILKWDPKSLEIRTLTVERLLEPLVTQVTTLVNTSNKGPSGKKKGRSKKAHVLAASVEQATQNFLEKGEQIAKESQDLKEELVAAVEDVRKQGETMRIASSEFADDPCSSVKRGTMVRAARALLSAVTRLLILADMADVMRLLSHLKIVEEALEAVKNATNEQDLANRFKEFGKEMVKLNYVAARRQQELKDPHCRDEMAAARGALKKNATMLYTASQAFLRHPDVAATRANRDYVFKQVQEAIAGISSAAQATSPTDEAKGHTGIGELAAALNEFDNKIILDPMTFSEARFRPSLEERLESIISGAALMADSSCTRDDRRERIVAECNAVRQALQDLLSEYMNNTGRKEKGDPLNIAIDKMTKKTRDLRRQLRKAVMDHISDSFLETNVPLLVLIEAAKSGNEKEVKEYAQVFREHANKLVEVANLACSISNNEEGVKLVRMAATQIDSLCPQVINAALTLAARPQSKVAQDNMDVFKDQWEKQVRVLTEAVDDITSVDDFLSVSENHILEDVNKCVIALQEGDVDTLDRTAGAIRGRAARVIHIINAEMENYEAGVYTEKVLEATKLLSETVMPRFAEQVEVAIEALSANVPQPFEENEFIDASRLVYDGVRDIRKAVLMIRTPEELEDDSDFEQEDYDVRSRTSVQTEDDQLIAGQSARAIMAQLPQEEKAKIAEQVEIFHQEKSKLDAEVAKWDDSGNDIIVLAKQMCMIMMEMTDFTRGKGPLKNTSDVINAAKKIAEAGSRMDKLARAVADQCPDSACKQDLLAYLQRIALYCHQLNICSKVKAEVQNLGGELIVSGTGVQSTFTTFYEVDCDVIDGGRASQLSTHLPTCAEGAPIGSGSSDSSMLDSATSLIQAAKNLMNAVVLTVKASYVASTKYQKVYGTAAVNSPVVSWKMKAPEKKPLVKREKPEEFQTRVRRGSQKKHISPVQALSEFKAMDSF
B2: MARCKS-related protein (protein, UniProt P28667 1-200)
chain: MGSQSSKAPRGDVTAEEAAGASPAKANGQENGHVRSNGDLTPKGEGESPPVNGTDEAAGATGDAIEPAPPSQEAEAKGEVAPKETPKKKKKFSFKKPFKLSGLSFKRNRKEGGGDSSASSPTEEEQEQGEMSACSDEGTAQEGKAAATPESQEPQAKGAEASAASKEGDTEEEAGPQAAEPSTPSGPESGPTPASAEQNE
B3: Tubulin alpha chain-like 3 (protein, UniProt Q3UX10 1-446)
chain: MRECLSIHIGQAGVQIGDACWELYCLEHGIQPDGFILDHQHDNLENPKVEHMNASLDTFFHETRAGKHVPRTLFMDLEPTVIDGIRVGRYHSLFHPEQLVNGKEDAANTYARGRYSVGSEVIELVLERIRKLAEQCSGLQGFLIYRSFGGGTGSGFTSLLMERLSVEYCKKIKLEFSVYPSPRISTAVVEPYNAILTTHSTIEYSDCAFMVDNEALYDICQHKLGIERPSYASINRLIAQVSSSITASLRFEGPLNVDLIEFQTNLVPYPRIHFPITALAPIISAEKAYQEQLSVSDVTASCFEVSNQLVKCDPRLGKYMACCLLYRGDVVPKDVNEAIAAMKSRTSVQFVDWCPTGFKVGINYQPPAVVPGGDLARVQRAVCMLSNTTAIVEAWARLDHKFDLMYAKKAFLHWYITEGMELGEFVEAREDLAALEKDYEEVGLSF

These are yes or no findings as the source states them, for the method shown. Binding seen in cells or lysates may run through a third protein. Here binding means that the protein was enriched with, or labelled near, the bait; the list need not be complete. Sequences can lack the tags named with a protein.

In this test the target is T1, HA-tagged doublecortin (HA-DCX), bait of the pull-down. Description: affinity purification with mass spectrometry; HA-tagged DCX immobilised on anti-HA agarose beads, mixed with protein lysates from E18 mouse brains, 16 hr at 4°C, washed four times; HA as negative control; only the target purified.
For the molecule B1, the binding entry was “binds”.
Consider B2, for which the binding result is on record as “binds”.
Turning to B3, the binding entry is recorded as “binds”.

These data come from PMC9799976.
